Measurements taken from patent US20120149100A1, “CARDIOMYOCYTE CELL POPULATIONS” (Mount Sinai School of Medicine, priority 2005, published 2012).
For at least one compound, name, drawing or mass did not settle the structure.

How the values were obtained:
Assay type in all cases: cell-based
[1] = test system: GFP-Bry+/Flk-1- fraction from GFP-Bry/Ainv-Notch4 ES cells; assay: Cardiac assay of reaggregated GFP-Bry+/Flk-1- cells
Procedure: (§1) Sorted cells were reaggregated for 24 hours in StemPro-34 serum-free medium (hwitrogen) containing 2 mM L-glutamine (GIBCO/BRL), transferrin (200 μg/ml), 0.5 mM ascorbic acid and 4.5×10^−4 M MTG at 3×10^5 cells per ml in ultra-low-attachment 24-well plates (Costar). Single aggregates or pools of aggregates were replated in gelatin-coated 96- or 24-well plates containing SternPro with 2 mM L-glutamine for cardiac culture. Following 2 to 4 days of culture the proportion of aggregates containing contracting cells was scored and the number of Troponin T-positive cells was evaluated by flow cytometric analyses. For the aggregated and cardiac cultures, doxycycline (Dox) was used at 0.5 μg/ml and γ-secretase inhibitor X at 5 μM (dissolved in DMSO). The same concentration of DMSO was added to the control cultures. Medium was changed everyday to provide fresh Dox and inhibitor.
Cardiac potential has been mapped to the Flk-1^− fraction of brachytury-expressing mesoderm (GFP-Bry^+/Flk-1^−) at early singes of EB development (Kouskoff et al., supra). […] Three days following differentiation of the aggregates in the cardiac cultures, the proportion of cTnT-positive cells and the expression of cardiac genes were analyzed (FIG. 7). […]

[2] = test system: Flk-1+ cells isolated from day 3.25 Ainv-Notch4 EBs; assay: Cardiac assay of reaggregated Flk-1+ cells from Ainv-Notch4 EBs
Procedure: as §1
To investigate the potential of Notch4 to initiate a cardiogenic program in this early stage of hemangioblast population, Flk-1^+ cells isolated from day 3.25 Ainv-Notch4 EBs were reaggregated for 24 hours in the presence or absence of Dox as described above. The resulting aggregates were then cultured in gelatin-coated microliter wells containing serum-free media (hereafter referred to as cardiac cultures). These conditions efficiently support cardiomyooyte development from cardiogenic mesoderm (Kouskoff et al. (2005) Proc. Natl. Acad. Sci. 102:13170-13175). Both single aggregates and pools of aggregates were cultured for 2-3 days. Following this maturation step, the cultures of single aggregates were scored for the presence of contracting cells indicative of cardiomyocyte differentiation. None of the aggregates generated in the absence of Dox (−Dox/−Dox) contained contracting cells (FIG. 3A). Rather, these aggregates underwent heniatopoietio differentiation as indicated by the development of hemoglobinized erythroid cells, an observation consistent with the hemangioblast potential of this population. […] (FIG. 3B, right panel). Few cTnT cells were atected among the adhesive cells generated from non-induced aggregates (FIG. 3B, left panel). Cultures of the pooled induced aggregates generated extensive areas of contracting cells. Contracting cells were not detected in the cultures of the non-induced aggregates. Flow cytometric analysis of the differentiated progeny from pooled inducedaggregates confirmed the dramatic cardiogenic effect of Notch4 as greater than 60% of the entire cell population expressed cTnT after 2 days in the cardiac cultures (+Dox/−Dox, FIG. 3C). Less than 1% of the cells generated from the non-induced population expressed cTnT (−Dox/−Dox, FIG. 3C). Consistent with the cTnT expression and the presence of contracting cells, the induced populations expressed cardiac specific genes including nkx2.5, cardiac mhc, α-actin, mlc2a and mlc2v (FIG. 3D). The generation of contracting cells and expression of cardiac genes in the aggregate-derived populations could be inhibited by blocking Notch4 signalling with γ-secretase inhibitor during the reaggregation step (+Dox+inhibitor/−Dox, FIG. 3A, 3C and 3D).

[3] = test system: Flk-1+ cells isolated from day 3.25 EBs; assay: Reaggregation culture for hematopoietic development of Flk-1+ cells; details: Dox during 2-day reaggregation
[4] = +Dox/+Dox, Dox maintained in the cardiac cultures

C[C@H]1c2cccc(O)c2C(=O)C2=C(O)[C@]3(O)C(=O)C(C(N)=O)=C(O)[C@@H](N(C)C)[C@@H]3[C@@H](O)[C@@H]21 [Dox, doxycycline]
cardiomyocyte development versus control cultures ([1]; +Dox/-Dox, induction during the reaggregation stage): enhanced
cardiomyocyte development versus control culture ([1]; -Dox/+Dox, induction in the cardiac cultures): inhibited
contracting aggregates [2, 4]: no contracting aggregates
size of cTnT-positive population [2, 4]: significantly reduced in size
aggregates containing contracting cells ([2]; +Dox/-Dox, induced for 24 hours, day 3.25 Flk-1+ cells): all aggregates
aggregates containing contracting cells ([2]; Flk-1+ cells from day 3 EBs, Dox 24 hours): All aggregates
aggregates containing contracting cells ([2]; Flk-1+ cells from day 5 EBs, Dox 24 hours): none
size of the CD41+ population and hematopoietic progenitor content of the aggregates [3]: dramatically reduced
